# Some peptides are written in HELM: one residue between dots, names in brackets for other building blocks, links after the first $.
# Assay: general procedure: Boc solid-phase peptide synthesis; HBT
# Details: late stage modification step, high performance liquid chromatography
substance,measurement,value
PEPTIDE1{[IBU].H.P.F.H.[Sta].L.[NHBzl]}$$$$V2.0,final HPLC purity,93.1%

# From US4479941A (Merck & Co., Inc., priority 1982, dated 1984)
